Measured values taken from patent publication US20120294796A1 (MacroGenics, published 2012).

Assays:
[1] = target: cynomolgus monkey B7-H3 (cynomolgus monkey); experiment: summary of Example 1
[2] = target: human B7-H3, 2Ig form (human); experiment: BIACORE, mAb titrated over immobilized antigen
[3] = target: cynomolgus monkey B7-H3 (cynomolgus monkey); experiment: Cyno B7-H3 binding (grade)
[4] = target: cynomolgus monkey B7-H3 (cynomolgus monkey); experiment: summary of activities (Table 6)
[5] = target: cynomolgus monkey B7-H3 (cynomolgus monkey); experiment: Cynomolgus B7-H3 binding (grade, Table 21)
[6] = target: cynomolgus monkey B7-H3 (cynomolgus monkey); experiment: IHC on cynomolgus tissues
[7] = target: human B7-H3, 2Ig form (human); experiment: 2Ig/4Ig specificity
[8] = target: human B7-H3, 2Ig form (human); experiment: Specificity (Table 21)
[9] = target: human B7-H3, 2Ig form (human); experiment: summary of attributes
[10] = target: cynomolgus monkey B7-H3 (cynomolgus monkey); experiment: summary of attributes
[11] = target: cynomolgus monkey B7-H3 (cynomolgus monkey); experiment: Cyno cross-reactivity

Measured: binding

B1: BRCA69D (antibody, IgG1, V domains shown)
VH: QVQLQQSGAELARPGASVKLSCKASGYTFTSYWMQWVKQRPGQGLEWIGTIYPGDGDTRYTQKFKGKATLTADKSSSTAYMQLSSLASEDSAVYYCARRGIPRLWYFDVWGAGTTVTVSS
VL: DIQMTQTTSSLSASLGDRVTISCRASQDISNYLNWYQQKPDGTVKLLIYYTSRLHSGVPSRFSGSGSGTDYSLTIDNLEQEDIATYFCQQGNTLPPTFGGGTKLEIK
notes: also called BRCA69A (probable misprint)
binds: all assays above

B2: PRCA157 (antibody, IgG1, V domains shown)
VH: EVQQVESGGDLVKPGGSLKLSCAASGFTFSSYGMSWVRQTPDKRLEWVATINSGGSNTYYPDSLKGRFTISRDNAKNTLYLQMRSLKSEDTAMYYCARHDGGAMDYWGQGTSVTVSS
VL: DIQMTQSPASLSVSVGETVTITCRASESIYSYLAWYQQKQGKSPQLLVYNTKTLPEGVPSRFSGSGSGTQFSLKINSLQPEDFGRYYCQHHYGTPPWTFGGGTNLEIK
not listed: [2]
binds: all other assays above

Results are given in words; binding and its absence hold for the method and conditions named. A result given as binding can be weak or reduced; the word gives no strength.
